Results as given in PubChem BioAssay AID1671190 (National Center for Advancing Translational Sciences (NCATS), 2021).
Hit rate of the full screen: of about 580,000 compounds, about 6,100 (1.1%) were called active. The inconclusive results got no clear call from the source; some entries with a clear call stand among them for comparison. The call rests on the fitted dose curve; in most records, active means well fitted inhibition curve with a large enough effect; inconclusive means small, poorly fitted or top-dose-only effect, or another doubt; inactive means no such curve, though single readings can be large or run the other way. A potency beside an inconclusive call is a rough fit, not a confirmed value.

Protein sequences, listed by entry. Tags and fused reporters are not part of them. Lines headed by an entry give the natural chain unless they say otherwise; changes in a name come on top.
UniProt P18054: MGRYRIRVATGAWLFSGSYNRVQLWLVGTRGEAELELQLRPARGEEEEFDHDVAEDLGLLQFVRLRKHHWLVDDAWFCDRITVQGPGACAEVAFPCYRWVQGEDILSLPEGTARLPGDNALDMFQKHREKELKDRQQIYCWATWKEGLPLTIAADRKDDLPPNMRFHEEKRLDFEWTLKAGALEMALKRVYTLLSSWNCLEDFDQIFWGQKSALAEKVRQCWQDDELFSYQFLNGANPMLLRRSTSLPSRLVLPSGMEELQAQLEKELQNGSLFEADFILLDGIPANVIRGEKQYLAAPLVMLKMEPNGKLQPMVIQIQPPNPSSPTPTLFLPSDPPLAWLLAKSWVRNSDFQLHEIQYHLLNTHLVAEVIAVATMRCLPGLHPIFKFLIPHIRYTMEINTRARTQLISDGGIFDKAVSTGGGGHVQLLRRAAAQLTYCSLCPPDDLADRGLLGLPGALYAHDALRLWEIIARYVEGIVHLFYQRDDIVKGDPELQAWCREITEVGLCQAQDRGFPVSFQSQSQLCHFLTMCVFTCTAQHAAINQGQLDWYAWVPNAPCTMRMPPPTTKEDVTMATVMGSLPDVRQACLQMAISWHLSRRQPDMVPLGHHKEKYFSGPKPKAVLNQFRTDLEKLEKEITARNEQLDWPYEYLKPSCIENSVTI

The compounds below were run against Polyunsaturated fatty acid lipoxygenase ALOX12 (Homo sapiens) (UniProt P18054) (assay: Primary qHTS assay for inhibitors of human arachidonate 12S-lipoxygenase (ALOX12): Round 2). Settings: purified 12hLO, xylenol orange hydroperoxide absorbance; activity change, negative = inhibition: at 108 µM (top of the series) unless noted.
Method in brief: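 Purified human 12hLO (150 nM final) in 25 mM Hepes, 0.01% Triton X-100, pH 7.0 was preincubated 15 min at room temperature with compound. Then 40 uM arachidonic acid was added, 30 min. Hydroperoxide was read by Fe-XO absorbance ratio 573/405 nm.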
On the % scale 0 is the no-effect control and ±100 the full control effect; potency means the concentration at half of the fitted maximal effect.

Structure (SMILES)	activity change, negative = inhibition	Potency
CCCCn1nc(C(=O)NCC(F)(F)F)c2ccccc2c1=O	inactive: -0.534%	–
O=C(CC1SCCNC1=O)Nc1cc(Cl)cc(Cl)c1 (stereo not drawn)	–	inconclusive: 89.1 µM [inhibitor, single point]
COc1ccc(OC)c(NC(=O)CCNC(=O)N2CC(=O)Nc3ccccc32)c1	–	inconclusive: 89.1 µM [inhibitor, single point]
CCc1nc2sc(C(=O)O)c(N)c2c2c1CCCC2	–	inconclusive: 2 µM [inhibitor, full curve, poor fit]
Cc1coc2cc3oc(=O)c(CC(=O)NCc4cccc(Cl)c4)c(C)c3cc12	–	inconclusive: 126 µM [inhibitor, partial curve, poor fit]
O=C(NCCC(F)(F)F)C1Cc2c(-c3cccc(F)c3)ccnc2O1 (stereo not drawn)	–	inconclusive: 112 µM [inhibitor, single point]
O=C1CCCC(O)=C1C1C2=C(CCCC2=O)OC2=C1C(=O)CCC2	inactive: 0.641%	–
COc1cccc(-c2c(NC(=O)c3ccc(C)cc3)oc3ccccc3c2=O)c1	inactive: -15.7%	–
COc1ccc(C(=O)Cn2c(Cl)nc3c2c(=O)n(C)c(=O)n3C)cc1	–	inconclusive: 141 µM [inhibitor, single point]
COc1ccc(CNC(=O)Nc2ccc3c(c2)N(C)C(=O)c2ccccc2S3)cc1OC	–	inconclusive: 63.1 µM [inhibitor, partial curve, poor fit]
COc1cccc(NC(=O)NC[C@H]2O[C@@H](CO)[C@@H](O)[C@H]2N(C)CCN(C)C)c1	–	inconclusive: 10 µM [inhibitor, partial curve, poor fit]
O=C(/C=C/c1cc(Br)ccc1F)OCC(=O)N1CCOCC1	–	inconclusive: 126 µM [inhibitor, single point]
CCc1cc(=O)oc2c3c(cc(OCC(=O)NCc4cccnc4)c12)OC(C)(C)CC3	inactive: -10.8%	–
Cc1ccc(C(=O)C(C)C(=O)c2ccc(C)c(C)c2)cc1C	–	inconclusive: 89.1 µM [inhibitor, partial curve, poor fit]
O=[N+]([O-])c1ccc(O)c(Nc2ncnc3ccc(Br)cc23)c1	–	inconclusive: 0.398 µM [inhibitor, full curve, poor fit]
CN1C(=O)C(CC(=O)NCc2cccs2)Sc2ncccc21 (stereo not drawn)	–	inconclusive: 28.2 µM [inhibitor, single point]
Cc1ccc(C(=O)N2CCC(Oc3ccc(C(N)=O)cn3)CC2)cc1C	–	inconclusive: 79.4 µM [inhibitor, single point]
CC1CCN(CCNC(=O)c2ccc(NC(=O)C3CCCO3)cc2)CC1 (stereo not drawn)	–	inconclusive: 112 µM [inhibitor, single point]
CCCn1c(=O)[nH]c(=O)c2c1nc(-c1ccc(CC)cc1)n2CCOC	inactive: -2.99%	–
O=C(NCc1ccnc2[nH]ccc12)c1ccccc1F	–	inconclusive: 100 µM [inhibitor, partial curve]
CC(=O)c1ccc(NS(=O)(=O)c2ccc3[nH]c4c(c3c2)CCCC4)cc1	–	inconclusive: 79.4 µM [inhibitor, partial curve, poor fit]

Structure (SMILES)	activity change, negative = inhibition	Potency
CCCS(=O)(=O)N1CCN(Cc2ccccc2OCC)CC1	–	inconclusive: 2.24 µM [inhibitor, full curve, poor fit]
O=C(Nc1ccccc1C(=O)O)c1cc(S(=O)(=O)Nc2cccc(F)c2)ccc1Cl	–	inconclusive: 44.7 µM [inhibitor, partial curve, poor fit]
Cc1cc(Cl)cc2c1NC(=O)[C@]21[C@@H]2C(=O)N(Cc3ccccc3)C(=O)[C@@H]2[C@@H]2CCCN21	–	inconclusive: 35.5 µM [inhibitor, partial curve, poor fit]
Cc1ccc(S(=O)(=O)Nc2ccc3oc(C)nc3c2)cc1	–	inconclusive: 126 µM [inhibitor, single point]
COc1ccc(Oc2coc3cc(OCC(=O)OCCC(C)C)ccc3c2=O)cc1	inactive: -22.6%	–
CCCC(=O)Nc1nc2nc(C)cc(=O)n2[nH]1	–	inconclusive: 39.8 µM [inhibitor, partial curve, poor fit]
Cc1ccc(C)c(NC(=O)Cc2c[nH]c3ccccc23)c1	–	inconclusive: 56.2 µM [inhibitor, partial curve, poor fit]
Cc1ccc2c(c1)N(CCCC(=O)NCc1ccc3c(c1)OCO3)C(=O)CO2	–	inconclusive: 100 µM [inhibitor, single point]
Cc1ccc(CN2CCN(C(=O)CC(C)(C)C)CC2)cc1	–	inconclusive: 14.1 µM [inhibitor, partial curve, poor fit]
NC(=O)c1ccc(C(F)(F)F)n(Cc2c(Cl)cccc2Cl)c1=O	–	inconclusive: 158 µM [inhibitor, partial curve, poor fit]
CCOC(=O)c1cnc2c(ccc3ccccc32)c1NCCCN(C)C	–	inconclusive: 89.1 µM [inhibitor, single point]
COc1ccc(C2c3ccc(O)cc3Oc3ncn4nc(-c5ccco5)nc4c32)cc1OC (stereo not drawn)	inactive: -16.8%	–
CC(C)(C)c1ncc(-c2ccccc2)[nH]1	inactive: 4.08% [at 12.5 µM]	–
O=C1C(=O)N(CCN2CCOCC2)C(c2ccc([N+](=O)[O-])cc2)/C1=C(/O)c1ccc2c(c1)OCO2 (stereo not drawn)	–	inconclusive: 39.8 µM [inhibitor, partial curve, poor fit]
C(=NN1CCCCCC1)c1ccc2ccccc2n1	–	inconclusive: 50.1 µM [inhibitor, partial curve, poor fit]
O=C1NCC2(CCCN(C(=O)CCc3ccc(=O)[nH]n3)C2)O1 (stereo not drawn)	–	inconclusive: 3.55 µM [inhibitor, full curve, poor fit]
FC(F)(F)c1cccc(-c2cc(-c3cccnc3)c3cncn3c2)c1	–	inconclusive: 100 µM [inhibitor, partial curve]
CCOc1ccc(C2c3[nH]c4ccccc4c3CCN2C(=O)CSCc2ccc(F)cc2)cc1 (stereo not drawn)	–	inconclusive: 79.4 µM [inhibitor, partial curve, poor fit]
Cc1cc(C)cc(NC(=O)Cn2c(N3CCOCC3)nc(C)cc2=O)c1	inactive: -6%	–
CS(=O)(=O)Nc1cccc(-c2nc(N3CCOCC3)c3ccccc3n2)c1	–	inconclusive: 22.4 µM [inhibitor, partial curve, poor fit]
COc1ccc(-c2csc(N3CCC(C(N)=O)CC3)n2)cc1	–	inconclusive: 79.4 µM [inhibitor, single point]

Structure (SMILES)	activity change, negative = inhibition	Potency
COc1cn(CC(=O)Nc2ccc(C(N)=O)cc2)c(CSc2ccccc2)cc1=O	–	inconclusive: 39.8 µM [inhibitor, partial curve, poor fit]
Cc1cccc(CNC(=O)c2ccc3nc(Cc4ccccc4)oc3c2)c1	–	inconclusive: 112 µM [inhibitor, partial curve, poor fit]
CCc1ccc(-n2c(=S)sc3c(=O)n(-c4ccccc4C)c(SCC(=O)O)nc32)cc1	–	inconclusive: 50.1 µM [inhibitor, partial curve, poor fit]
COc1ccc(NC(=O)Cn2c(=O)n(-c3cccc(C)c3)c(=O)c3c2cc(C)n3C)cc1	–	inconclusive: 79.4 µM [inhibitor, single point]
Nc1nc(=S)[nH]c2c1C1(CCCCC1)Cc1ccccc1-2	–	inconclusive: 39.8 µM [inhibitor, partial curve, poor fit]
COc1ccc(-c2ccc(SCC(=O)c3ccccc3)nn2)cc1OC	inactive: -1.67%	–
O=C(Cc1ccc(-c2ccc(OCCN3CCOCC3)cc2)cn1)NCc1ccccc1	inactive: -4.46% [at 57.4 µM]	–
Cc1ccc(Oc2ccc(S(=O)(=O)Nc3ccc(C(=O)O)cc3)cc2)cc1	–	inconclusive: 44.7 µM [inhibitor, partial curve, poor fit]
CC1=C(C(=O)N2CCOCC2)CC(CC(=O)NCc2cccc3ccccc23)C(=O)N1CCCN1CCCC1=O (stereo not drawn)	–	inconclusive: 35.5 µM [inhibitor, single point]
CCc1nnc(NC(=O)CN2CCN(Cc3ccccc3Cl)CC2)s1	–	inconclusive: 0.447 µM [inhibitor, full curve, poor fit]
Cc1cccc2c1-c1sc(C(=O)NCCCN3CCCC(C)C3)cc1CO2 (stereo not drawn)	–	inconclusive: 70.8 µM [inhibitor, partial curve, poor fit]
CN(CCO)c1nc(-c2ccco2)c2c(c1C#N)CCCC2	–	inconclusive: 56.2 µM [inhibitor, partial curve, poor fit]
O=C(O)/C=C/C(=O)NCC1CCC(CNC(=O)/C=C/C(=O)O)CC1 (stereo not drawn)	–	inconclusive: 3.98 µM [inhibitor, full curve, poor fit]
Cn1c(=O)c2c(nc(CN3CCN(c4ccccc4)CC3)n2CCN2CCOCC2)n(C)c1=O	inactive: -14.1%	–
COCCc1noc([C@@H]2CC(F)(F)CN2C(=O)c2cccc(C)n2)n1	inactive: 34.8%	–
CCCNC(=O)Cn1cccc1-c1nc(-c2ccc(F)c(Br)c2)no1	inactive: -7.29%	–
C=CCNC(=O)N1CCCC1C(=O)Nc1cccc(-n2cccn2)c1 (stereo not drawn)	inactive: 42.1%	–
Cc1ccc(-c2nc(C#N)c(NCc3ccco3)o2)cc1	–	inconclusive: 100 µM [inhibitor, single point]
CN(Cc1ccc(Cl)cc1)C(=O)c1ccc(S(=O)(=O)NCc2ccco2)cc1	–	inconclusive: 112 µM [inhibitor, single point]
CC1=C(C(=O)N2CCOCC2)CC(CC(=O)NCCCN(C)C)C(=O)N1CCCN1CCCC1=O (stereo not drawn)	–	inconclusive: 39.8 µM [inhibitor, partial curve, poor fit]
C/C=C\C=C/C(=O)Nc1cccc(C2=NOC3(C2)C[C@@H](C(N)=O)N(C(=O)c2ccc(Cl)cc2)C3)c1 (stereo partly drawn)	–	inconclusive: 39.8 µM [inhibitor, partial curve, poor fit]

Reformatted with each value named: 4 of the compounds above.
Cc1ccc(Oc2ccc(S(=O)(=O)Nc3ccc(C(=O)O)cc3)cc2)cc1
  Potency: inconclusive: 44.7 µM [inhibitor, partial curve, poor fit]
CC1=C(C(=O)N2CCOCC2)CC(CC(=O)NCc2cccc3ccccc23)C(=O)N1CCCN1CCCC1=O (stereo not drawn)
  Potency: inconclusive: 35.5 µM [inhibitor, single point]
CCc1nnc(NC(=O)CN2CCN(Cc3ccccc3Cl)CC2)s1
  Potency: inconclusive: 0.447 µM [inhibitor, full curve, poor fit]
Cc1cccc2c1-c1sc(C(=O)NCCCN3CCCC(C)C3)cc1CO2 (stereo not drawn)
  Potency: inconclusive: 70.8 µM [inhibitor, partial curve, poor fit]
